{"source": "the supplement of paper PMC4604168 (melanoma cell lines)", "note": "The list shows a part of the results. Single values are uncertain, as repeats are few or missing.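 The apoptosis fraction was the count of cleaved-PARP antibody-stained nuclei relative to all DNA-stained nuclei, imaged in 1,536-well plates. Screening doses were set so most cells survived, and baseline and induced cleaved-PARP levels vary greatly across cell lines.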", "data": [{"system": "MeWo", "experiment": "cleaved PARP positive nuclei fraction relative to DMSO control; higher = more apoptosis", "conditions": "library dose: low library concentration; 72 h", "units": {"cleaved PARP positive nuclei fraction": "%"}, "values": [{"smiles": "CCN(CC)CCCCNc1ncc2cc(-c3cc(OC)cc(OC)c3)c(NC(=O)NC(C)(C)C)nc2n1", "note": "+ COc1cc(N2CCC(N3CCN(C)CC3)CC2)ccc1Nc1ncc(Cl)c(Nc2ccccc2S(=O)(=O)C(C)C)n1 [NVP-TAE684] (first compound 0.1 µM, partner dose 0.08 µM)", "cleaved PARP positive nuclei fraction": 333}, {"smiles": "O=C(Nc1ccccc1)c1cc([N+](=O)[O-])ccc1Cl", "note": "+ Cc1cc([N+](=O)[O-])ccc1NS(=O)(=O)c1cc(Cl)ccc1Cl [FH535] (first compound 2 µM, partner dose 1 µM)", "cleaved PARP positive nuclei fraction": 261}, {"smiles": "COc1ccc(-c2ccc3c(N4CCOCC4)nc(N4C[C@@H](C)O[C@@H](C)C4)nc3n2)cc1CO", "note": "+ Cn1cc(/C=C2\\C(=O)Nc3cccnc32)c2ccccc21 [GW441756] (first compound 0.02 µM, partner dose 0.4 µM)", "cleaved PARP positive nuclei fraction": 248}, {"smiles": "COc1cc2c(Oc3ccc4[nH]c(C)cc4c3F)ncnc2cc1OCCCN1CCCC1", "note": "[cediranib] + O=c1cc(-c2cccc3c2Sc2ccccc2S3)oc(N2CCOCC2)c1 [KU55933] (first compound 0.4 µM, partner dose 1 µM)", "cleaved PARP positive nuclei fraction": 54}]}, {"system": "RPMI7951", "experiment": "cleaved PARP positive nuclei fraction relative to DMSO control; melanoma cells; higher = more apoptosis", "conditions": "library dose: low library concentration; 72 h", "units": {"cleaved PARP positive nuclei fraction": "%"}, "values": [{"smiles": "O=C(Nc1ccccc1)c1cc([N+](=O)[O-])ccc1Cl", "note": "+ O=S(=O)(c1ccccc1)N(CC(F)(F)F)c1ccc(C(O)(C(F)(F)F)C(F)(F)F)cc1 [T0901317] (first compound 2 µM, partner dose 1.4 µM)", "cleaved PARP positive nuclei fraction": 75.1}, {"smiles": "CN(C)S(=O)(=O)c1ccc2c(c1)/C(=C/c1cc3c([nH]1)CCCC3)C(=O)N2", "note": "+ NCC(=O)Nc1ccc(-n2nc(C(F)(F)F)cc2-c2ccc3c(ccc4ccccc43)c2)cc1 [OSU03012] (first compound 0.4 µM, partner dose 1 µM)", "cleaved PARP positive nuclei fraction": 103}, {"smiles": "N#Cc1c(O)c2c(-c3ccc(-c4ccccc4O)cc3)csc2[nH]c1=O", "note": "+ O=S(=O)(c1ccccc1)N(CC(F)(F)F)c1ccc(C(O)(C(F)(F)F)C(F)(F)F)cc1 [T0901317] (first compound 2 µM, partner dose 1.4 µM)", "cleaved PARP positive nuclei fraction": 172}, {"smiles": "NCC(=O)Nc1ccc(-n2nc(C(F)(F)F)cc2-c2ccc3c(ccc4ccccc43)c2)cc1", "note": "+ COc1cc2c(Oc3ccc4[nH]c(C)cc4c3F)ncnc2cc1OCCCN1CCCC1 [cediranib] (first compound 1 µM, partner dose 0.4 µM)", "cleaved PARP positive nuclei fraction": 45.3}, {"smiles": "CN(NC(=O)CC(=O)NN(C)C(=S)c1ccccc1)C(=S)c1ccccc1", "note": "+ c1cc(-c2cnn3cc(-c4ccc(OCCN5CCCCC5)cc4)cnc23)ccn1 [Dorsomorphin] (first compound 0.006 µM, partner dose 0.4 µM)", "cleaved PARP positive nuclei fraction": 95.6}, {"smiles": "COc1cc2c(Oc3ccc4[nH]c(C)cc4c3F)ncnc2cc1OCCCN1CCCC1", "note": "[cediranib] + c1cc(-c2cnn3cc(-c4ccc(OCCN5CCCCC5)cc4)cnc23)ccn1 [Dorsomorphin] (first compound 0.4 µM, partner dose 0.4 µM)", "cleaved PARP positive nuclei fraction": 39.8}, {"smiles": "CN(NC(=O)CC(=O)NN(C)C(=S)c1ccccc1)C(=S)c1ccccc1", "note": "+ N#Cc1c(O)c2c(-c3ccc(-c4ccccc4O)cc3)csc2[nH]c1=O [A769662] (first compound 0.006 µM, partner dose 2 µM)", "cleaved PARP positive nuclei fraction": 44.6}, {"smiles": "O=C(O)c1ccc(-c2c[nH]c3ncc(-c4ccccc4)cc23)cc1C1CCCC1", "note": "+ CN(NC(=O)CC(=O)NN(C)C(=S)c1ccccc1)C(=S)c1ccccc1 [STA4783] (first compound 0.16 µM, partner dose 0.006 µM)", "cleaved PARP positive nuclei fraction": 62.4}, {"smiles": "CN(C)S(=O)(=O)c1ccc2c(c1)/C(=C/c1cc3c([nH]1)CCCC3)C(=O)N2", "note": "+ CC(C)CCN1c2nc(Nc3cc(F)c(O)c(F)c3)ncc2N(C)C(=O)C1C [BID1870] (first compound 0.4 µM, partner dose 0.2 µM)", "cleaved PARP positive nuclei fraction": 164}, {"smiles": "CN(NC(=O)CC(=O)NN(C)C(=S)c1ccccc1)C(=S)c1ccccc1", "note": "+ COc1cc2c(Oc3ccc4[nH]c(C)cc4c3F)ncnc2cc1OCCCN1CCCC1 [cediranib] (first compound 0.006 µM, partner dose 0.4 µM)", "cleaved PARP positive nuclei fraction": 31.8}, {"smiles": "COC(=O)c1sccc1S(=O)(=O)Nc1ccc(Nc2ccccc2)cc1OC", "note": "+ COc1ccc(-c2ccc3c(N4CCOCC4)nc(N4C[C@@H](C)O[C@@H](C)C4)nc3n2)cc1CO [KU0063794] (first compound 1 µM, partner dose 0.02 µM)", "cleaved PARP positive nuclei fraction": 88.3}]}]}
